In test [1] the target is T1, TTL3-nYFP (Arabidopsis thaliana) (UniProt Q9SIN1).
T1 sequence: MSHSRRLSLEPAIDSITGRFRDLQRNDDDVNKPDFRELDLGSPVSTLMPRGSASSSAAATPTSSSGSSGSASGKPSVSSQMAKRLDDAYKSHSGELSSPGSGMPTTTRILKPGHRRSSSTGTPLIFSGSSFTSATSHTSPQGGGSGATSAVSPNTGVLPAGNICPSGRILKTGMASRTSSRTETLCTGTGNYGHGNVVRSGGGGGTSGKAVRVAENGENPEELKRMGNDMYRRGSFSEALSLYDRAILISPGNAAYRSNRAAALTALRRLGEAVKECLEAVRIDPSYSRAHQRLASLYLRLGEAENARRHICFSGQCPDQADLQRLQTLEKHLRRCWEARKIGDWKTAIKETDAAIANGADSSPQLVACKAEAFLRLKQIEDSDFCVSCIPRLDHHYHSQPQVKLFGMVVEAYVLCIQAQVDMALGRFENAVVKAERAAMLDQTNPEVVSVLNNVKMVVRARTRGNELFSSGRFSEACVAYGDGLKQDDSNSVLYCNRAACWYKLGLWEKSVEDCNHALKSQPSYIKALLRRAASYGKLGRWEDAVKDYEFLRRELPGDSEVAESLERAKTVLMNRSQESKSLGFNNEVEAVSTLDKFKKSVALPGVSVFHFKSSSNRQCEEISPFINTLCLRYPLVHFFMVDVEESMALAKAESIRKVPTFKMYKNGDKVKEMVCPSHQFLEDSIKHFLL
Description: split reporter.

Sequences of proteins named here, by UniProt entry; tags and fusion partners are left off. Residues count along the entry.
UniProt Q944A7: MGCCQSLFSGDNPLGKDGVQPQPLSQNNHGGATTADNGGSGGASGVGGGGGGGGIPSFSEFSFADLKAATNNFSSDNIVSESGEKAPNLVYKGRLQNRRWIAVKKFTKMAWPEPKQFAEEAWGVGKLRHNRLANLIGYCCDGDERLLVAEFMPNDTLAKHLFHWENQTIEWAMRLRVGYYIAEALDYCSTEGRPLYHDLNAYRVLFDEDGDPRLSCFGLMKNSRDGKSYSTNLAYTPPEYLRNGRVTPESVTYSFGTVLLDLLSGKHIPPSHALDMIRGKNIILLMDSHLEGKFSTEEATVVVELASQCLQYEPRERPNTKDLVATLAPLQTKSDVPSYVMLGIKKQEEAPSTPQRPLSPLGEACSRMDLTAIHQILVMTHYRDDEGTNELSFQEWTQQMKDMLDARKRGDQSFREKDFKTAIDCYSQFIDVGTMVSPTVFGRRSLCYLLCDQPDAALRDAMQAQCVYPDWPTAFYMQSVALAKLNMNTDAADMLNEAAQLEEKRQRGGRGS
UniProt Q8S307: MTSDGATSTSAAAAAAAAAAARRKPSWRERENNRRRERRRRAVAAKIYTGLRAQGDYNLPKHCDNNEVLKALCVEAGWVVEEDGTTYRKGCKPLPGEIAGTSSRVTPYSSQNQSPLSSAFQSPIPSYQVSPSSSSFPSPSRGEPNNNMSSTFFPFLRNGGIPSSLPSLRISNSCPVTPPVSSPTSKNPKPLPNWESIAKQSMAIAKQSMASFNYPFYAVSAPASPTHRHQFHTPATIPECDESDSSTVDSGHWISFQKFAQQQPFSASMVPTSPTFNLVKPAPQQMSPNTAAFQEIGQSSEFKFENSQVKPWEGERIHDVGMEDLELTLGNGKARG
UniProt O22476, residues 24-1196: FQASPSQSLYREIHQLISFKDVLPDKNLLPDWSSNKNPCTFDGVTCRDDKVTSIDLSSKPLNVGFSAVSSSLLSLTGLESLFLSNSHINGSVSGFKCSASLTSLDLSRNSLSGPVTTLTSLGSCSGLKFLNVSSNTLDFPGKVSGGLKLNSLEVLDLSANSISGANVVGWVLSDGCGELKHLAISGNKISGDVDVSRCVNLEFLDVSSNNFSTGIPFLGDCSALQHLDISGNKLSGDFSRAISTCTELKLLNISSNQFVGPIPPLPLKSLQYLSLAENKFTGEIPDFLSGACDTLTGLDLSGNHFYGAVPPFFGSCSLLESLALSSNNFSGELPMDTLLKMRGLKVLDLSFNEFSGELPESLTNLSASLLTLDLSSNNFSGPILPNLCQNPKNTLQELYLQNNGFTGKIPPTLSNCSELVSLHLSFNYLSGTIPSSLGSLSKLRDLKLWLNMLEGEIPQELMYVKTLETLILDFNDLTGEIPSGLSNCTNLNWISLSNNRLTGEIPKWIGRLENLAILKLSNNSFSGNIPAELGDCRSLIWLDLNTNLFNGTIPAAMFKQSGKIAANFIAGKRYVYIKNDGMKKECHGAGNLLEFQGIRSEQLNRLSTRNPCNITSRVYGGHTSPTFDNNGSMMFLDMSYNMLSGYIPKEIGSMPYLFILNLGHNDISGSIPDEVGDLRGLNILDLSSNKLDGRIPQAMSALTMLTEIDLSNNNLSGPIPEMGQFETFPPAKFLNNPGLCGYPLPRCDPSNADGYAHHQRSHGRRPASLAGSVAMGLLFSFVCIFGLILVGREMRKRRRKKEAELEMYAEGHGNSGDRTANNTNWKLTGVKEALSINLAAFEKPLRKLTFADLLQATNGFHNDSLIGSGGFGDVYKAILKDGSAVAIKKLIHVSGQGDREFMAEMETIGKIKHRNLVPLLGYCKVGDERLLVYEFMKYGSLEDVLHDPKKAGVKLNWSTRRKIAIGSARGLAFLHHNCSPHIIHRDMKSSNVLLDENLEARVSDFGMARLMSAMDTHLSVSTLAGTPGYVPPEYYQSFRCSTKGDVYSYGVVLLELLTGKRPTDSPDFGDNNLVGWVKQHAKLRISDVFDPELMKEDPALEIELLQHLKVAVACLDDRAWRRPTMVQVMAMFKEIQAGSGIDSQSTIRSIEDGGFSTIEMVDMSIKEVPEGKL
UniProt Q9LR78: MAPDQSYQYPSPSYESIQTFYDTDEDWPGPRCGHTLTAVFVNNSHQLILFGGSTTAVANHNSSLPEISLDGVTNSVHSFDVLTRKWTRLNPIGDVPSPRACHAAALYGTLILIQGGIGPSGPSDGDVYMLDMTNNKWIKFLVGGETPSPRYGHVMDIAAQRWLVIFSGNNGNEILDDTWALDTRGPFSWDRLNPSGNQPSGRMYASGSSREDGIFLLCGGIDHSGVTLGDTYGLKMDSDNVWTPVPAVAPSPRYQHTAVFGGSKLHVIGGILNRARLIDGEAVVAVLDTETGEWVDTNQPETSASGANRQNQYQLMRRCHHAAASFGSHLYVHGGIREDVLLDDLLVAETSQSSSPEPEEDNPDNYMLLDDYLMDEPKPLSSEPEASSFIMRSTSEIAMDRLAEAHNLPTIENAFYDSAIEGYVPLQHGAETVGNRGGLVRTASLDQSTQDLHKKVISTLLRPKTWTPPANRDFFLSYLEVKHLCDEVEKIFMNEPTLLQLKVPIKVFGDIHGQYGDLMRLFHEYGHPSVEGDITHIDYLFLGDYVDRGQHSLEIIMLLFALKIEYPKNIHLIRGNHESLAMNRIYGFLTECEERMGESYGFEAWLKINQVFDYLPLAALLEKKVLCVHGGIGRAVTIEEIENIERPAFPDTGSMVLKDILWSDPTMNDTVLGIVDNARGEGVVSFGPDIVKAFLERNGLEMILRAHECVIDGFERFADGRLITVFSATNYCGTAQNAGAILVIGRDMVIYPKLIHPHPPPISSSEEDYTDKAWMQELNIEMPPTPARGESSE

The target of test [2] is BSK1-nYFP (Arabidopsis thaliana) (UniProt Q944A7). Description: split reporter.
Test [3] addresses T2, TTL3-GFP (N. benthamiana) (Arabidopsis thaliana) (UniProt Q9SIN1).
T2 sequence: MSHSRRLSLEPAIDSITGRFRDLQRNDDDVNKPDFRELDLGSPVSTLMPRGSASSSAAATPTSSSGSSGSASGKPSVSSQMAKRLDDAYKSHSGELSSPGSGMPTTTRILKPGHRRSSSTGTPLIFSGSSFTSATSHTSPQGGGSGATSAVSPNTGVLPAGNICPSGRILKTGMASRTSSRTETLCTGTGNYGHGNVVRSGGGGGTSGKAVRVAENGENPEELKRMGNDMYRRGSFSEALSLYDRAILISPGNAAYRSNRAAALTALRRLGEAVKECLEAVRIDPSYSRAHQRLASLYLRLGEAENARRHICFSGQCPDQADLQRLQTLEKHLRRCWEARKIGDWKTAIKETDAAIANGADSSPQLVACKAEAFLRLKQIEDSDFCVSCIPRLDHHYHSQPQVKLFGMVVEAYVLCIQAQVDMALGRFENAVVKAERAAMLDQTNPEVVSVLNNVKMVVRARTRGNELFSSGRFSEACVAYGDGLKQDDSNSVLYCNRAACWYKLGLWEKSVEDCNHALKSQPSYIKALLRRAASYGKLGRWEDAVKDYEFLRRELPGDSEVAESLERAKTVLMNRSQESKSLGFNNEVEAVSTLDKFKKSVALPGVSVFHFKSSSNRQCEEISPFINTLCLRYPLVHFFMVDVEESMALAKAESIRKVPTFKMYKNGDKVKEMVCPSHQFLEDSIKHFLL
Nature of the test: co-IP.

In test [4] the target is T3, GFP-TTL3 full length (Arabidopsis thaliana) (UniProt Q9SIN1).
T3 sequence: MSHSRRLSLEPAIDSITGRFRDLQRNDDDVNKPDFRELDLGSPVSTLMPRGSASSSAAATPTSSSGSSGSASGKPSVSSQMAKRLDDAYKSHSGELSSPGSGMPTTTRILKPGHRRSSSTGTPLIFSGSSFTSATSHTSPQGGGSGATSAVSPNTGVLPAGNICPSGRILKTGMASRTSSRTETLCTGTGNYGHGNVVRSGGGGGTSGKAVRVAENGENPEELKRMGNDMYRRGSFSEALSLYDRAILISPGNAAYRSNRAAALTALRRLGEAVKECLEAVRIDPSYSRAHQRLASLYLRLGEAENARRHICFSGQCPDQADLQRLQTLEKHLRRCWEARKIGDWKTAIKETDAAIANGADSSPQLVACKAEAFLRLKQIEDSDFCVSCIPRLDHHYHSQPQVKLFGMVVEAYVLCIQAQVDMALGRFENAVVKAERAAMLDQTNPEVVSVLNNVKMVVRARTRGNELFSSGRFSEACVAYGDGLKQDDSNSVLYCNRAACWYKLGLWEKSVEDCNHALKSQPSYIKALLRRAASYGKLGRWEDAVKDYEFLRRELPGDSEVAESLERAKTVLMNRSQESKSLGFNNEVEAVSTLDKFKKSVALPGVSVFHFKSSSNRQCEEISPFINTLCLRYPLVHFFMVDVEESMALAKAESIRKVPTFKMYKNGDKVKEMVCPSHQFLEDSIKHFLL
Description: co-IP.

Test [5] deals with T4, TTL3-cYFP (Arabidopsis thaliana) (UniProt Q9SIN1).
T4 sequence: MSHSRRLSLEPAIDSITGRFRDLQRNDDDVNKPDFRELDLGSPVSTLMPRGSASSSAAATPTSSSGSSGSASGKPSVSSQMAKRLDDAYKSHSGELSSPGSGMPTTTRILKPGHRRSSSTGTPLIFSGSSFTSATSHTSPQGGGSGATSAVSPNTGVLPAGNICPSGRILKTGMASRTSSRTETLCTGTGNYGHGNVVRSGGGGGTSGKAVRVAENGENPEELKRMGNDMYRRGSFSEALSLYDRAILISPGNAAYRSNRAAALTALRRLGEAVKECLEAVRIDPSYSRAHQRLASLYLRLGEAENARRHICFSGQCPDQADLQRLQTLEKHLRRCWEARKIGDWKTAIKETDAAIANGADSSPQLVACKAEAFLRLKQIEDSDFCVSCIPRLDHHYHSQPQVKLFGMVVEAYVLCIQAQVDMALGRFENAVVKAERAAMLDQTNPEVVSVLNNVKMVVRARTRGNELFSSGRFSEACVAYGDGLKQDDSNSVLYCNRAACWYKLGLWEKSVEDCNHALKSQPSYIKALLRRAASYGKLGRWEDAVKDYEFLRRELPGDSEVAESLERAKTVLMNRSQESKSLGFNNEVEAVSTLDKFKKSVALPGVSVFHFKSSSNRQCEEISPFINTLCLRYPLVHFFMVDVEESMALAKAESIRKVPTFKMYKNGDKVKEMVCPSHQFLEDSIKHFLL
Description: split reporter.

Test [6] concerns the target BZR1-GFP (Arabidopsis thaliana) (UniProt Q8S307). Nature of the test: co-IP.
Test [7] concerns the target BD-BZR1 (Arabidopsis thaliana) (UniProt Q8S307). Nature of the test: two-hybrid.
The target in test [8] is BRI1-GFP (Arabidopsis thaliana) (UniProt O22476). Description: co-IP.
The target of test [9] is T2, TTL3-GFP (N. benthamiana) (Arabidopsis thaliana). Nature of the test: co-IP. This is another data set of the same source.

Read-outs that look alike come from different tables or passages of the source. These are yes or no findings as the source states them, for the method shown. For part of these data: Binding seen in cells or lysates may run through a third protein. Some binding calls cover weakened binding; strength is not graded here. For part of these data: Sequences can lack the tags named with a protein.

With “BSU1-cYFP (from UniProt Q9LR78 1-793) (enzyme)”, the binding entry in [1] and in test [2] was “binds” in each case.

“BSU1-HA (from UniProt Q9LR78 1-793) (enzyme)”: the binding result in [3] and in [4] was “binds” throughout.

For the molecule “BRI1-cYFP (from UniProt O22476 24-1196) (receptor)”, the binding entry in test [1] and in test [2] was “binds” in each case.

As to “BSU1-nYFP (from UniProt Q9LR78 1-793) (enzyme)”, the binding result in [5] was “binds”.

Turning to “BSK1-HA (from UniProt Q944A7 1-512) (enzyme)”, the binding entry in test [6] and in [4] was “binds” each time.

Turning to BZR1-cYFP (from UniProt Q8S307 1-336), the binding entry in test [2] is recorded as “binds weakly”.

Consider “BSK1-nYFP (from UniProt Q944A7 1-512) (enzyme)”, for which, in test [5], the binding entry is given as “binds”.

Take “BSK1-cYFP (from UniProt Q944A7 1-512) (enzyme)”: the binding entry in [1] is reported as “binds”.

With “BRI1-nYFP (from UniProt O22476 24-1196) (receptor)”, the binding entry in test [5] is listed as “binds”.

B1: TTL3ΔN1 (yeast two-hybrid fusion) (domain or fragment, UniProt Q9SIN1 204-691)
chain: GGTSGKAVRVAENGENPEELKRMGNDMYRRGSFSEALSLYDRAILISPGNAAYRSNRAAALTALRRLGEAVKECLEAVRIDPSYSRAHQRLASLYLRLGEAENARRHICFSGQCPDQADLQRLQTLEKHLRRCWEARKIGDWKTAIKETDAAIANGADSSPQLVACKAEAFLRLKQIEDSDFCVSCIPRLDHHYHSQPQVKLFGMVVEAYVLCIQAQVDMALGRFENAVVKAERAAMLDQTNPEVVSVLNNVKMVVRARTRGNELFSSGRFSEACVAYGDGLKQDDSNSVLYCNRAACWYKLGLWEKSVEDCNHALKSQPSYIKALLRRAASYGKLGRWEDAVKDYEFLRRELPGDSEVAESLERAKTVLMNRSQESKSLGFNNEVEAVSTLDKFKKSVALPGVSVFHFKSSSNRQCEEISPFINTLCLRYPLVHFFMVDVEESMALAKAESIRKVPTFKMYKNGDKVKEMVCPSHQFLEDSIKHFLL
Turning to B1, the binding entry in test [7] is given as “binds”.

B2: TTL3-HA (protein, UniProt Q9SIN1 1-691)
chain: MSHSRRLSLEPAIDSITGRFRDLQRNDDDVNKPDFRELDLGSPVSTLMPRGSASSSAAATPTSSSGSSGSASGKPSVSSQMAKRLDDAYKSHSGELSSPGSGMPTTTRILKPGHRRSSSTGTPLIFSGSSFTSATSHTSPQGGGSGATSAVSPNTGVLPAGNICPSGRILKTGMASRTSSRTETLCTGTGNYGHGNVVRSGGGGGTSGKAVRVAENGENPEELKRMGNDMYRRGSFSEALSLYDRAILISPGNAAYRSNRAAALTALRRLGEAVKECLEAVRIDPSYSRAHQRLASLYLRLGEAENARRHICFSGQCPDQADLQRLQTLEKHLRRCWEARKIGDWKTAIKETDAAIANGADSSPQLVACKAEAFLRLKQIEDSDFCVSCIPRLDHHYHSQPQVKLFGMVVEAYVLCIQAQVDMALGRFENAVVKAERAAMLDQTNPEVVSVLNNVKMVVRARTRGNELFSSGRFSEACVAYGDGLKQDDSNSVLYCNRAACWYKLGLWEKSVEDCNHALKSQPSYIKALLRRAASYGKLGRWEDAVKDYEFLRRELPGDSEVAESLERAKTVLMNRSQESKSLGFNNEVEAVSTLDKFKKSVALPGVSVFHFKSSSNRQCEEISPFINTLCLRYPLVHFFMVDVEESMALAKAESIRKVPTFKMYKNGDKVKEMVCPSHQFLEDSIKHFLL
As for B2, in test [8], the binding entry is on record as “binds”.

B3: BAK1 (co-IP construct) (receptor, UniProt Q94F62 26-615)
chain: NAEGDALSALKNSLADPNKVLQSWDATLVTPCTWFHVTCNSDNSVTRVDLGNANLSGQLVMQLGQLPNLQYLELYSNNITGTIPEQLGNLTELVSLDLYLNNLSGPIPSTLGRLKKLRFLRLNNNSLSGEIPRSLTAVLTLQVLDLSNNPLTGDIPVNGSFSLFTPISFANTKLTPLPASPPPPISPTPPSPAGSNRITGAIAGGVAAGAALLFAVPAIALAWWRRKKPQDHFFDVPAEEDPEVHLGQLKRFSLRELQVASDNFSNKNILGRGGFGKVYKGRLADGTLVAVKRLKEERTQGGELQFQTEVEMISMAVHRNLLRLRGFCMTPTERLLVYPYMANGSVASCLRERPESQPPLDWPKRQRIALGSARGLAYLHDHCDPKIIHRDVKAANILLDEEFEAVVGDFGLAKLMDYKDTHVTTAVRGTIGHIAPEYLSTGKSSEKTDVFGYGVMLLELITGQRAFDLARLANDDDVMLLDWVKGLLKEKKLEALVDVDLQGNYKDEEVEQLIQVALLCTQSSPMERPKMSEVVRMLEGDGLAERWEEWQKEEMFRQDFNYPTHHPAVSGWIIGDSTSQIENEYPSGPR
For B3, the binding result in test [9] is “no binding”.

B4: BAK1*-DK (dead kinase D416N) (receptor, UniProt Q94F62 26-615)
chain: NAEGDALSALKNSLADPNKVLQSWDATLVTPCTWFHVTCNSDNSVTRVDLGNANLSGQLVMQLGQLPNLQYLELYSNNITGTIPEQLGNLTELVSLDLYLNNLSGPIPSTLGRLKKLRFLRLNNNSLSGEIPRSLTAVLTLQVLDLSNNPLTGDIPVNGSFSLFTPISFANTKLTPLPASPPPPISPTPPSPAGSNRITGAIAGGVAAGAALLFAVPAIALAWWRRKKPQDHFFDVPAEEDPEVHLGQLKRFSLRELQVASDNFSNKNILGRGGFGKVYKGRLADGTLVAVKRLKEERTQGGELQFQTEVEMISMAVHRNLLRLRGFCMTPTERLLVYPYMANGSVASCLRERPESQPPLDWPKRQRIALGSARGLAYLHDHCDPKIIHRNVKAANILLDEEFEAVVGDFGLAKLMDYKDTHVTTAVRGTIGHIAPEYLSTGKSSEKTDVFGYGVMLLELITGQRAFDLARLANDDDVMLLDWVKGLLKEKKLEALVDVDLQGNYKDEEVEQLIQVALLCTQSSPMERPKMSEVVRMLEGDGLAERWEEWQKEEMFRQDFNYPTHHPAVSGWIIGDSTSQIENEYPSGPR
Take B4: in [9], the binding result is given as “no binding”.

B5: TTL3ΔN2 (yeast two-hybrid fusion) (domain or fragment, UniProt Q9SIN1 371-691)
chain: AEAFLRLKQIEDSDFCVSCIPRLDHHYHSQPQVKLFGMVVEAYVLCIQAQVDMALGRFENAVVKAERAAMLDQTNPEVVSVLNNVKMVVRARTRGNELFSSGRFSEACVAYGDGLKQDDSNSVLYCNRAACWYKLGLWEKSVEDCNHALKSQPSYIKALLRRAASYGKLGRWEDAVKDYEFLRRELPGDSEVAESLERAKTVLMNRSQESKSLGFNNEVEAVSTLDKFKKSVALPGVSVFHFKSSSNRQCEEISPFINTLCLRYPLVHFFMVDVEESMALAKAESIRKVPTFKMYKNGDKVKEMVCPSHQFLEDSIKHFLL
Take B5: in test [7], the binding result is given as “binds”.

The values above are taken from doi:10.1101/351056.
